Results published in publication PMC2645672, “Mechanism of Neuronal versus Endothelial Cell Uptake of Alzheimer's Disease Amyloid β Protein” (PLoS ONE, 2009).

Tests used:
[1] = system: differentiated PC12 cells; assay: Cellular uptake and localization by microscopy in differentiated PC12 cells
[2] = system: rat primary hippocampal (RPH) neurons; assay: Cellular uptake and localization by microscopy in rat primary hippocampal neurons; details: 15 µg/ml F-Aβ40 and 75 nM Lysotracker Red, 30 min, 37°C

Substance: F-Aβ40: fluorescein labeled human Aβ40
- Co-localization with AF647-CT (caveolae mediated endocytosis marker) [1]: co-localized very slightly
- Co-localization with LysoTracker red (acidic compartments) ([1]; 15 µg/ml F-Aβ40 and 75 nM Lysotracker Red in DMEM, 30 min, 37°C): only a partial co-localization
- Co-localization with Dil-LDL (late endosomes) ([1]; 15 µg/ml F-Aβ40 and 15 µg/ml Dil-LDL, 15 and 30 min, 37°C): partial co-localization
- Site of accumulation in RPH neurons (Lysotracker Red predominantly in the cell body) [2]: in the neurites
